The source of these data is patent publication US20060287229A1, “Novel CD40 variants” (priority 2004, published 2006).

The chains behind the UniProt entries cited, without tags or fusion partners.
UniProt P29965: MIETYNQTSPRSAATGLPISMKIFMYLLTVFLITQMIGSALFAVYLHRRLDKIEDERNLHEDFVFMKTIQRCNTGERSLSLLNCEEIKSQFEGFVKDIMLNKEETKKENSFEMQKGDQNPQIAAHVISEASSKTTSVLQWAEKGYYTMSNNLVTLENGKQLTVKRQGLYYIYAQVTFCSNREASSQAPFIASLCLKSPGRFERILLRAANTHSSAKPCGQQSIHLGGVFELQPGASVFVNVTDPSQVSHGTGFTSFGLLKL

Test [1] deals with full length human CD154 on stably transfected mouse fibroblasts (human) (UniProt P29965). The experiment in a line: flow cytometry on mouse fibroblasts expressing human CD154, 1-50 ug/ml, detected with PE anti-CD40 EA-5.
The target is the same in test [2]. The experiment in a line: flow cytometry on mouse fibroblasts expressing human CD154 (FIG. 17A).

These are yes or no findings as the source states them, for the method shown. Some binding calls cover weakened binding; strength is not graded here. Tags and fused reporters may be left off the sequences shown.

B1: Skipping 6-sCD40-Fc (Fc fusion, not shown: a dimerising Fc or GST)
chain: EPPTACREKQYLINSQCCSLCQPGQKLVSDCTEFTETECLPCGESEFLDTWNRETHCHQHKYCDPNLGLRVQQKGTSETDTICTCEEGWHCTSEACESCVLHRSCSPGFGVKQIATGVSDTICEPCPVGFFSNVSSAFEKCHPWTRSPGSAESPGGDPHHLRDPVCHPLGAGLYQKGGQEANQ
B1: the binding result in test [1] and in test [2] was “binds” throughout.
